Test results as given in patent US20220288028A1, “A THERAPEUTIC APPROACH FOR TREATING NON-INFECTIOUS OCULAR IMMUNOINFLAMMATORY DISORDERS” (The Schepens Eye Research Institute, Inc., priority 2019, published 2022).
At least one structure is not confirmed: it was looked up by name or label, or the drawing left a doubt. Where a SMILES comes first, the peptide text is derived from it. [ ]: non-standard residue; d: D form.

Legend:
Foxp3^+CD4^+ Tregs = test: Isolated Tregs co-cultured with SP, with or without NK1R antagonist (recovered Tregs); type: cell-based, mice; details: SP 1 nM; spantide I 100 μM; p<0.05
Experimental: FIGS. 3A and 3B show the results of the in vitro effect of SP on Treg cells. The normal functional Foxp3^+CD4^+ Tregs were isolated from naive mice and co-cultured with different doses of SP, e.g., at 0.01, 0.1, 1, and 10 nM in vitro. […] On the contrary, addition of the NK1R antagonist prevented the loss of Tregs (FIG. 3B).

CD11c^+ BMDCs = test: Trigeminal ganglion / BMDC co-culture with Spantide, MHC II by flow cytometry; type: cell-based, C57BL/6 mice; details: Spantide 100 μM in TG-BMDC co-culture, 18 hours; p=0.04
CD4^+CD25^+Foxp3^+ Tregs = test: Tregs co-cultured with SP with or without Spantide I: phenotype, cytokines, suppression of effector T cell proliferation; type: cell-based, C57BL/6 mice; details: Spantide I 10 μM added to co-culture with SP 1 μM, 48 hours
Experimental: CD4^+CD25^+Foxp3^+ Tregs were isolated from draining lymph nodes (DLN) of naïve female C57BL/6 mice.
Isolated Tregs were co-cultured with SP (1 μM) with or without Spantide I (10 μM) for 48 hours. Phenotype of Tregs was evaluated by flow cytometry, and the capacity of Tregs to suppress effector T cell proliferation was investigated.

DED mice = test: Mouse model of DED, systemic (intraperitoneal) Spantide I; type: in vivo
[1] = intraperitoneally 36 μg/day, vs control

For `CC(C)C[C@H](NC(=O)[C@H](CC(C)C)NC(=O)[C@@H](Cc1c[nH]c2ccccc12)NC(=O)[C@H](Cc1ccccc1)NC(=O)[C@@H](Cc1c[nH]c2ccccc12)NC(=O)[C@H](CCC(N)=O)NC(=O)[C@H](CCC(N)=O)NC(=O)[C@@H]1CCCN1C(=O)[C@H](CCCCN)NC(=O)[C@@H]1CCCN1C(=O)[C@H](N)CCCNC(=N)N)C(N)=O` [Spantide I] (H-[dR]PKPQQ[dW]F[dW]LL-NH2), the “SP-induced Treg reduction” value (Foxp3^+CD4^+ Tregs) was “SP-induced Treg reduction was abrogated”, the “effect of DED TG on BMDC maturation (MHC II expression)” value (CD11c^+ BMDCs) was “significantly abrogated the effect of DED TG on BMDC maturation” and the “SP-induced Treg dysfunction” value (CD4^+CD25^+Foxp3^+ Tregs) was “reverses SP-induced Treg dysfunction”. The “corneal fluorescein staining (CFS) scores” value (DED mice; intraperitoneally 36 μg/day from one day before DED induction until day 14, vs PBS-treated controls) was “significantly lower”, the “frequencies of CD4^+IL-17^+ TH17 cells in conjunctivae” value (DED mice; [1]) was “significant reduction” and the “frequencies of CD4^+IL-17^+ TH17 cells in draining lymph nodes” value (DED mice; [1]) was “significant reduction”. The “capacity of Tregs isolated from DLN in suppressing effector T cell proliferation” value (DED mice; intraperitoneally 36 μg/day, vs control group) was “higher capacity”.
